According to paper PMC10536727:
No constants are given. Whether binding was seen depends on the method and setting. Binding seen in cells or lysates may run through a third protein. Some entries that bind do so weakly or less than the wild type. For part of these data: Tags and fused reporters may be left off the sequences shown.

Protein sequences, listed by entry. Tags and fused reporters are not part of them.
UniProt P35241: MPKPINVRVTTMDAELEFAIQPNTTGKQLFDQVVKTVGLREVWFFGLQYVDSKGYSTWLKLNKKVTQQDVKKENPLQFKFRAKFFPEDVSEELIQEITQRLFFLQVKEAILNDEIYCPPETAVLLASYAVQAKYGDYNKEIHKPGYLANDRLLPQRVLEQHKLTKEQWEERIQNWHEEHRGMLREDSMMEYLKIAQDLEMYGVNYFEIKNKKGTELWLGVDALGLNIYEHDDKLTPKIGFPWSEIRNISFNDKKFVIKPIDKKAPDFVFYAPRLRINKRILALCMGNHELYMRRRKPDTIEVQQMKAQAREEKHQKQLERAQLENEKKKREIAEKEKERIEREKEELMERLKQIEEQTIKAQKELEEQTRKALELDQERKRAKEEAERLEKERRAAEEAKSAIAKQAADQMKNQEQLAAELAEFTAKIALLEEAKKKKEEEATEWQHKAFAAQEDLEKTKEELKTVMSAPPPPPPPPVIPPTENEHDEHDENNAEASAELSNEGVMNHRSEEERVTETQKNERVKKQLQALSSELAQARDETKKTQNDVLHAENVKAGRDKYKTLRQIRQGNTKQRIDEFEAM

Legend:
[1] = target: T1, intercellular adhesion molecule 2 (ICAM2), endogenous (human (endogenous in SGC7901 and MGC803)) (UniProt P13598); experiment: co-IP; endogenous proteins in lysates of SGC7901 and MGC803 cells (Pierce IP Lysis Buffer); ICAM2 antibody or RDX antibody or normal immunoglobulin G, protein A/G agarose beads, overnight at 4 °C; Western blotting
T1 sequence: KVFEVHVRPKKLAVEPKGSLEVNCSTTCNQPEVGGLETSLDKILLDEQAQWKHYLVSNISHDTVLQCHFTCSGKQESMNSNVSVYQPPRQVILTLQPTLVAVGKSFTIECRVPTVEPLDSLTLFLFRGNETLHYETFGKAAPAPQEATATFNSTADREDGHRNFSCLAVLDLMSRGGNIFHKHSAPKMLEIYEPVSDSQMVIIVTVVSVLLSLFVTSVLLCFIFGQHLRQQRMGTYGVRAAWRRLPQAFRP

Flag-ICAM2 = target: T2, Flag-ICAM2 (UniProt P13598); experiment: co-IP; Flag-ICAM2 and HA-RDX plasmids co-transfected into 293 T cells; lysate, immunoprecipitation, Western blotting
T2 sequence: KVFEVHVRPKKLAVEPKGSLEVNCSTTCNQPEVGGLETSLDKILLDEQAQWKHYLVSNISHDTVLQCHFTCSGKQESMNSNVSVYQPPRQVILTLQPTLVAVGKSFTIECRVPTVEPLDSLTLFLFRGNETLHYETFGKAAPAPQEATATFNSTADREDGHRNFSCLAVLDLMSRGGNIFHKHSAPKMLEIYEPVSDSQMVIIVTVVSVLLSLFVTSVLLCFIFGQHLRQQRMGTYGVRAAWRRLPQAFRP

[2] = target: radixin (RDX), endogenous (human (endogenous in SGC7901 and MGC803)) (UniProt P35241); experiment: co-IP; endogenous proteins in lysates of SGC7901 and MGC803 cells (Pierce IP Lysis Buffer); ICAM2 antibody or RDX antibody or normal immunoglobulin G, protein A/G agarose beads, overnight at 4 °C; Western blotting

Question: With “radixin (RDX), endogenous (from UniProt P35241 1-583)” as the molecule, how does the binding [1] read?
Answer: binds

Question: For HA-RDX (from UniProt P35241 1-583), which binding (Flag-ICAM2) is on record?
Answer: binds

B1: intercellular adhesion molecule 2 (ICAM2), endogenous (protein, UniProt P13598 25-275)
chain: KVFEVHVRPKKLAVEPKGSLEVNCSTTCNQPEVGGLETSLDKILLDEQAQWKHYLVSNISHDTVLQCHFTCSGKQESMNSNVSVYQPPRQVILTLQPTLVAVGKSFTIECRVPTVEPLDSLTLFLFRGNETLHYETFGKAAPAPQEATATFNSTADREDGHRNFSCLAVLDLMSRGGNIFHKHSAPKMLEIYEPVSDSQMVIIVTVVSVLLSLFVTSVLLCFIFGQHLRQQRMGTYGVRAAWRRLPQAFRP
Question: For B1, which binding [2] is on record?
Answer: binds
